1 compound from US20040191297A1, “Carotenoid formulation” (priority 1997, published 2004) can be followed below.

This data set is described as follows: Lycopene content of rat serum. Type of data set: in vivo, Fischer 344 rats. The settings on record: female, Group 4 (128 mg/kg diet). The procedure: Prior to termination, 3 animals from each group were placed in metabolic cages and 24-hour urine and fecal collections made for subsequent lycopene assay. Blood was collected by heart puncture under anesthesia for lycopene assay and all animals were sacrificed by CO2 anesthesia. Blood and feces were stored at −20° C. At necropsy, all major organ systems were grossly inspected. Any unusual appearing tissues were placed in formalin and saved for later histological examination.
Extraction of lycopene from serum was conducted by adding 1 ml of serum to 0.1 ml echinenone standard in ethanol and 0.9 ml ethanol. The mixture was then vortexed for 20 seconds, and 2.0 ml hexane added and mixed vigorously for 1 minute. The cloudy mixture was then centrifuged at 3,000 rpm for 15 minutes at 4° C. and the clear hexane layer was decanted. The above procedure was repeated 3-5×. The pooled hexane fraction was then dried under N2 gas at 60° C., and the residue dissolved in 0.5 ml HPLC solvent and analyzed by HPLC.

The source gives many values for each of these; only a part stands here.

As for `CC(C)=CCC/C(C)=C/C=C/C(C)=C/C=C/C(C)=C/C=C/C=C(C)/C=C/C=C(C)/C=C/C=C(\C)CCC=C(C)C` [Lycopene], the “Lycopene content of serum, Median” value came out at 308 ng/mL; the “Lycopene content of serum, Range” value lay in the range of 262 to 369 ng/mL; the “Lycopene content of serum, mean ± SD” value is 313 ± 047 ng/mL.
